Results reported in the supplement of paper PMC10849652.
Some of the results follow.

Protein sequences, listed by entry. Tags and fused reporters are not part of them. Lines headed by an entry give the natural chain unless they say otherwise; changes in a name come on top.
UniProt Q6NZI2: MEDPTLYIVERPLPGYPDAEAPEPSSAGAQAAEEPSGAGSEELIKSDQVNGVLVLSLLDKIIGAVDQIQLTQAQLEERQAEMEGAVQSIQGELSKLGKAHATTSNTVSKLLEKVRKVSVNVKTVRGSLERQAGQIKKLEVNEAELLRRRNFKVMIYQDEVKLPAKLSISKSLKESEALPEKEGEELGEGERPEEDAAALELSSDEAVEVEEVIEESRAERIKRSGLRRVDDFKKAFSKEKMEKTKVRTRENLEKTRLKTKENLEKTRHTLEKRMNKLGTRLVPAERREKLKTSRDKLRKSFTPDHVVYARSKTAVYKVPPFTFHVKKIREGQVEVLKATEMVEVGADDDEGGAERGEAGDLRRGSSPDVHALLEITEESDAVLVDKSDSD
UniProt Q3V6T2: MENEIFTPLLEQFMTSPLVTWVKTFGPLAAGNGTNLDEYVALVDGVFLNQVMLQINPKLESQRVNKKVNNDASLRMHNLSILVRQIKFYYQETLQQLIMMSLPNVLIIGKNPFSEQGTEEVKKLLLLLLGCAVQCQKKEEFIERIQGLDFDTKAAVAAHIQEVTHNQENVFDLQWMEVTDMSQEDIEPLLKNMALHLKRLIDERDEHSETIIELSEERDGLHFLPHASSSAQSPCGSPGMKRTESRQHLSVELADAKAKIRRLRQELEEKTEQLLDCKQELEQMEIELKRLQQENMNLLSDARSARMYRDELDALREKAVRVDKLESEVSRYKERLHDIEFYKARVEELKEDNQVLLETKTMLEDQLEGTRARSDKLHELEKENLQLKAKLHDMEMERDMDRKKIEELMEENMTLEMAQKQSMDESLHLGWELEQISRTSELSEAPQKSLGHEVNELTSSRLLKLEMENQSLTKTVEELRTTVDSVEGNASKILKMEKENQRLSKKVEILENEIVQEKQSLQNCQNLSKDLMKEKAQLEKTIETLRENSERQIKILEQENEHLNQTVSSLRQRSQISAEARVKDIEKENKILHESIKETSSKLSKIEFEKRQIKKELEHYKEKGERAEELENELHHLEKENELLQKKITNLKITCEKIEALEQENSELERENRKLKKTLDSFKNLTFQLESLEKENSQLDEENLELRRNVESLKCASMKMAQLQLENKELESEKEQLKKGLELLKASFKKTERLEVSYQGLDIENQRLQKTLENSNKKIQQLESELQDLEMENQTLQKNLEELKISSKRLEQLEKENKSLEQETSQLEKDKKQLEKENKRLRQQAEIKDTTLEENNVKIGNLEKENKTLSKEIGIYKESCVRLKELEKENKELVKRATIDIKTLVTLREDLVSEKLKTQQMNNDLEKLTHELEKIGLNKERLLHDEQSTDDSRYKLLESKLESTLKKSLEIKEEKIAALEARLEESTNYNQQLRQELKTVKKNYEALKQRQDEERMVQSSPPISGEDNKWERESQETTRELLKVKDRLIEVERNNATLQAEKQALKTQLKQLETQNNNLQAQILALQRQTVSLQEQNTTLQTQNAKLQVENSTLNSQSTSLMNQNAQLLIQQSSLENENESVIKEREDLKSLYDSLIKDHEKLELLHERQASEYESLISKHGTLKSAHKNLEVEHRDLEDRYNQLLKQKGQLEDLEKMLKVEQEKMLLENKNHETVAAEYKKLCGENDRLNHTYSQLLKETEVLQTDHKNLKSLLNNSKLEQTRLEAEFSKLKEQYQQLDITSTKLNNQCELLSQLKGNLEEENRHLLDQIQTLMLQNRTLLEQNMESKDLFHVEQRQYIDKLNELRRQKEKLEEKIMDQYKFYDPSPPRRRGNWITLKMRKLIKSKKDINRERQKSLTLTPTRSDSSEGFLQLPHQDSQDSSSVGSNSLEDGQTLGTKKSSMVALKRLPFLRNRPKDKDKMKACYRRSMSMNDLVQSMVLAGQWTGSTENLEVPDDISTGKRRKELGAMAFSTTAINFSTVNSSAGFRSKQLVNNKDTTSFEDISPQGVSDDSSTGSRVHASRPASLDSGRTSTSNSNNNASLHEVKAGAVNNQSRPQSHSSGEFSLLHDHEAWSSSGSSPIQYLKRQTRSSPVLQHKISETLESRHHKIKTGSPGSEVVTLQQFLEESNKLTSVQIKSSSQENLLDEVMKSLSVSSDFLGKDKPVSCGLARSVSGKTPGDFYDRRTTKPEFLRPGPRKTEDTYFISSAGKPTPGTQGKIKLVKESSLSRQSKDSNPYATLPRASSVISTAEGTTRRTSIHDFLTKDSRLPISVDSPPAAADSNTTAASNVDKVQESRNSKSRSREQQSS
UniProt P55211: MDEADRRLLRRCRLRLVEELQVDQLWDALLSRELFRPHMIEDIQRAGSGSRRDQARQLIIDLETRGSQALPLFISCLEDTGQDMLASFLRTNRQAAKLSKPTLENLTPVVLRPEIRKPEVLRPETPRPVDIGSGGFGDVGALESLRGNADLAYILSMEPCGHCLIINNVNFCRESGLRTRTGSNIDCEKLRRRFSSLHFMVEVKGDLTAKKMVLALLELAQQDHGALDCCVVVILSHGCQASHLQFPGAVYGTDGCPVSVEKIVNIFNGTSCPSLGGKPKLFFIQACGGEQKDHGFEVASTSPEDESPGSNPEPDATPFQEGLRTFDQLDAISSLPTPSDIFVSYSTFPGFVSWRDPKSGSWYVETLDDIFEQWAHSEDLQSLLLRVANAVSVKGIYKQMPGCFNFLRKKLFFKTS
UniProt O95067, whole entry, looked up: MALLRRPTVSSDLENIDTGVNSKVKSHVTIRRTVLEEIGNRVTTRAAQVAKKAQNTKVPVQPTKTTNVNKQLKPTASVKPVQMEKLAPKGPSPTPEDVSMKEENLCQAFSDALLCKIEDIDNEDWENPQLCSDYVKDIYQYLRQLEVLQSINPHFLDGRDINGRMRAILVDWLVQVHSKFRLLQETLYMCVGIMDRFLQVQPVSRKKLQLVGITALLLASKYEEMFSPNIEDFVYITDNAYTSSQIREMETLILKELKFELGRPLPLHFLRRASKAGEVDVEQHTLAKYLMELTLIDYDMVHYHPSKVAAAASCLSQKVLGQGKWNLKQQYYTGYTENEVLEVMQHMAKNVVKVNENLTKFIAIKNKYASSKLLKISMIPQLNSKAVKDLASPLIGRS
UniProt A6NHX0: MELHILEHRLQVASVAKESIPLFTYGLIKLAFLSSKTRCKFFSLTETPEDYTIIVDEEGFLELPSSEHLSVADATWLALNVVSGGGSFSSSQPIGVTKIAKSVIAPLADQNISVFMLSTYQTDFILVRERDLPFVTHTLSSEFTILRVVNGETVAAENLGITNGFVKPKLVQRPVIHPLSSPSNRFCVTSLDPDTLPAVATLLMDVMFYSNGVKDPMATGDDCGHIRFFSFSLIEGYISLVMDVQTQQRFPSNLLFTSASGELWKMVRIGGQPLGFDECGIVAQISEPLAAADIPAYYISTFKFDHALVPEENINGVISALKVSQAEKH
UniProt O75794: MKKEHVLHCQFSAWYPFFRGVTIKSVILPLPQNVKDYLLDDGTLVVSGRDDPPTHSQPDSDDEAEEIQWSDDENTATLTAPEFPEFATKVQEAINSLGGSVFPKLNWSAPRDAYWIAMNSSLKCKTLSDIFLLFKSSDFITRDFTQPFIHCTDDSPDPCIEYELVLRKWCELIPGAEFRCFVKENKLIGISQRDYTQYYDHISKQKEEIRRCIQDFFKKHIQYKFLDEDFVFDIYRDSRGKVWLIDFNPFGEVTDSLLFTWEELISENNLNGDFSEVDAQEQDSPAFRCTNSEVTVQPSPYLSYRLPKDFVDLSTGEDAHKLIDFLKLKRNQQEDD
UniProt Q6PII3: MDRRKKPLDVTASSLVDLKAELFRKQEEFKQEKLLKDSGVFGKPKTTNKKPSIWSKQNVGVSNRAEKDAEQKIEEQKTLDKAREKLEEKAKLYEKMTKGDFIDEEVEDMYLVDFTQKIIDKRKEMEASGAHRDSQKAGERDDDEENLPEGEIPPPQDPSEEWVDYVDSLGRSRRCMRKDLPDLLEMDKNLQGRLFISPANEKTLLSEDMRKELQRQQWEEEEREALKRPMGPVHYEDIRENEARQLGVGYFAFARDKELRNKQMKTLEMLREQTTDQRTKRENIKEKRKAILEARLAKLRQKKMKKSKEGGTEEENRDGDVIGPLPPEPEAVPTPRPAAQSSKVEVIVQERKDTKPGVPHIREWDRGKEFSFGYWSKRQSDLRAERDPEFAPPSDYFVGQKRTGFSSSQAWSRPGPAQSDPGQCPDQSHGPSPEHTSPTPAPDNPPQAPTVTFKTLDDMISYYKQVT
UniProt P08962, whole entry, looked up: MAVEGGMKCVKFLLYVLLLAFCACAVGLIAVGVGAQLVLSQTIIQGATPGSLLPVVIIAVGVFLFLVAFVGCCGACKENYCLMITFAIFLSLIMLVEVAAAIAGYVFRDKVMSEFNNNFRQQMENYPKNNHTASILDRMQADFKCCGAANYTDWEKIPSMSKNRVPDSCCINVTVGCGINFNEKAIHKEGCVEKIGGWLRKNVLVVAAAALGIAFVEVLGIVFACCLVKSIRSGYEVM
UniProt Q9BV29: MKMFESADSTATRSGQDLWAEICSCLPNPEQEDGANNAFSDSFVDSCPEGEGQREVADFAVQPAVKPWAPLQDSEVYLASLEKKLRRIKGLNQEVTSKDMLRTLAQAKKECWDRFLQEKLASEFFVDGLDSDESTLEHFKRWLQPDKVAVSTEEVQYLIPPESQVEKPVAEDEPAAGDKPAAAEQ
UniProt Q92851: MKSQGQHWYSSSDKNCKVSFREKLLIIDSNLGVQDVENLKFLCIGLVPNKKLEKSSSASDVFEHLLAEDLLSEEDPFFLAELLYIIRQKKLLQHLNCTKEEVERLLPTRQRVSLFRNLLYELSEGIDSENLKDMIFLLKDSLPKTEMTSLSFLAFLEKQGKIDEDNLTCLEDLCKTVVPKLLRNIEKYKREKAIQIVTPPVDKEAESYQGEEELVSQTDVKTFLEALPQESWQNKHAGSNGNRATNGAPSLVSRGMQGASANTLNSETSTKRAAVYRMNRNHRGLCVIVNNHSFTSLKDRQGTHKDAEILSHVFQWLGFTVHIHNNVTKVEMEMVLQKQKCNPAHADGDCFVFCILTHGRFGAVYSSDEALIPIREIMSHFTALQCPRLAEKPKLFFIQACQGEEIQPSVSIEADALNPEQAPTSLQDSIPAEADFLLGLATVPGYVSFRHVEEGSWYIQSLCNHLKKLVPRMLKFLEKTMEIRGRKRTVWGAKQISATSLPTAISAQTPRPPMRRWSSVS
UniProt Q96CT7: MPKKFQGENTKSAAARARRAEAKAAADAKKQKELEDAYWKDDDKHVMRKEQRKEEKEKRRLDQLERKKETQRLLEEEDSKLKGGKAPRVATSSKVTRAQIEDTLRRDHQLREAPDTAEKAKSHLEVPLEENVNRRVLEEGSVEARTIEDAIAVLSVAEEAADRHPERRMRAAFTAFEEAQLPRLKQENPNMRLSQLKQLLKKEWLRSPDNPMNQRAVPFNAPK
UniProt P14209: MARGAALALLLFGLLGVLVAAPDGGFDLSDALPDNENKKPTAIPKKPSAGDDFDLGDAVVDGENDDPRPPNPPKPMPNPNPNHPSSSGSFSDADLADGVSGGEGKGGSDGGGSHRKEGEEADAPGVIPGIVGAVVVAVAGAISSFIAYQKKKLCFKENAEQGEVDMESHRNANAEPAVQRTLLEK
UniProt Q86X55: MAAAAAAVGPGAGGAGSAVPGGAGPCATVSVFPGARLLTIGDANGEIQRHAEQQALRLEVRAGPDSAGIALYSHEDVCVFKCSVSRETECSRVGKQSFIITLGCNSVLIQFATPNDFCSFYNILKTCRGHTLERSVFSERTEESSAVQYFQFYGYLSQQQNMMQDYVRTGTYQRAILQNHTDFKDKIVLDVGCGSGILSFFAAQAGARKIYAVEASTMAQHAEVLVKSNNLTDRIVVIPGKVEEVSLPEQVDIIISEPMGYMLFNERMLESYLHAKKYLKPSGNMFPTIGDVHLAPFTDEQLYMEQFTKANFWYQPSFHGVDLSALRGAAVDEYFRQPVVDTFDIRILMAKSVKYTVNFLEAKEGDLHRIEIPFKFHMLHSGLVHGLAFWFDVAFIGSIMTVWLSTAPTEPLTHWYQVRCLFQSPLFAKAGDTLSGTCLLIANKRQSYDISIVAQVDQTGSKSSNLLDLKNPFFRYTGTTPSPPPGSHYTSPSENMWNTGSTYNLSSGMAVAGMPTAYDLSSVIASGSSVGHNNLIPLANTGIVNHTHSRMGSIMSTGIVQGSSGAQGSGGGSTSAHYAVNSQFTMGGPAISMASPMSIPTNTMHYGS
UniProt P45973, whole entry, looked up: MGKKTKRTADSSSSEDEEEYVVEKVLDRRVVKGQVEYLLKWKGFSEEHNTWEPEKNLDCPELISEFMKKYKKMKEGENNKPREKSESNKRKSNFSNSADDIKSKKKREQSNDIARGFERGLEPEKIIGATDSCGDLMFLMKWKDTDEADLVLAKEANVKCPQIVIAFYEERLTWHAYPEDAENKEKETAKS
UniProt P60033: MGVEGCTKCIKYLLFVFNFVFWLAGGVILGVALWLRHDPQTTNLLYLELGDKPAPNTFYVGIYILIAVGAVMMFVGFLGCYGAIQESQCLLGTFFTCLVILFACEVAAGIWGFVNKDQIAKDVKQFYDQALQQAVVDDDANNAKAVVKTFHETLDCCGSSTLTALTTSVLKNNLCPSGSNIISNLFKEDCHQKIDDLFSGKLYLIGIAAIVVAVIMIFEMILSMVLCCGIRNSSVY

Assays:
Experiment in all cases: log2 fold change, soluble protein after heating vs DMSO (PISA); higher = thermal stabilisation; K562 cells, 10 uM, 30 min; active = over 0.2 and 3.5 SD of the protein, either way, in both replicates (recomputed)
[1] = compound: CC[C@@H]1C(=O)N(C)c2cnc(Nc3ccc(C(=O)NC4CCN(C)CC4)cc3OC)nc2N1C1CCCC1
Method in brief: (§1)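 Quantification of soluble protein used TMTpro 16plex LC-MS/MS, with channel sums equalised. Samples were the supernatant after 21,000xg for 90 min of pooled aliquots from K562 cells (2×10^6 cells/mL) treated with 10 μM compound for 30 min, heated for 3 min over 48°C-58°C, and extracted in PBS with 0.5% NP-40 at 4°C. Values, from duplicates, describe thermal stability against control samples on a log2 fold-change scale.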

[2] = compound: CC[C@@H]1C(=O)N(C)c2cnc(Nc3ccc(C(=O)N[C@H]4CC[C@H](N5CCN(CC6CC6)CC5)CC4)cc3OC)nc2N1C(C)C [volasertib]
Method in brief: as §1

[3] = compound: CC[C@H](C)N1C=C(C2=C(C=C(C=C21)C3=CN=C(C=C3)N4CCNCC4)C(=O)NCC5=C(C=C(NC5=O)C)C)C
Method in brief: as §1

[4] = compound: CC[C@H](C)[C@@H](C(=O)N[C@@H]([C@@H](C)O)C(=O)N[C@@H](CC(C)C)C(=O)[C@]1(CO1)C)NC(=O)[C@H]([C@@H](C)CC)N(C)C(=O)C [epoxomicin]
Method in brief: as §1

[5] = compound: CCn1cc(-c2ccnc3[nH]c(-c4cccc(CN(C)C)c4)cc23)c(-c2ccc(NC(=O)N(C)C)cc2)n1
Method in brief: as §1

[6] = compound: CN(C)CC(=O)Nc1ccc2[nH]c(=O)c3ccccc3c2c1
Method in brief: as §1

[7] = compound: CN1C2=C(C3=C1C(=O)N(N=C3)CC4=CC(=CC=C4)N)SC(=C2)S(=O)C
Method in brief: as §1

[8] = compound: CN1CCC(CNc2ccc3ncc(-c4cccc(OC(F)(F)F)c4)n3n2)CC1
Method in brief: as §1

[9] = compound: CCn1c(C(=O)N(C2CC2)C2CC2)cc2c3c(ncn3C)c(Nc3cc(C)n(C)n3)nc21
Method in brief: as §1

[10] = compound: CN(CCOC1=CC=C(C=C1)C[C@H]2C(=O)NC(=O)S2)C3=CC=CC=N3 (racemic) [rosiglitazone]
Method in brief: as §1

Measured: log2 fold change

CAVIN1 (UniProt Q6NZI2)
inactive: [1] 0.072 | [2] 0.182 | [3] -0.007 | [4] -0.125 | [5] 0.085 | [6] -0.06 | [7] 0.124 | [8] -0.074

CARS isoform 3 (UniProt P49589)
inactive: [1] -0.012 | [2] -0.001 | [3] 0.009 | [4] -0.001 | [9] 0.01 | [5] -0.012 | [6] -0.017 | [10] 0.014 | [7] -0.054 | [8] -0.048

CCDC88A (UniProt Q3V6T2)
inactive: [1] 0.077 | [2] -0.218 | [3] -0.217 | [4] -0.117 | [9] -0.085 | [5] 0.067 | [6] 0.111 | [10] 0.124 | [7] 0.122 | [8] -0.114

CBL (UniProt P22681)
inactive: [1] -0.02 | [2] -0.029 | [3] 0.034 | [4] 0.001 | [9] -0.024 | [5] -0.043 | [6] -0.014 | [10] 0.014 | [7] -0.02 | [8] -0.026

CCDC47 (UniProt Q96A33)
inactive: [1] -0.076 | [2] -0.082 | [3] 0.009 | [4] 0.022 | [9] -0.004 | [5] -0.014 | [6] 0.019 | [10] 0.024 | [7] -0.063 | [8] -0.202

CASP9 (UniProt P55211)
active: [2] -0.629
inactive: [1] -0.083 | [3] 0.008 | [4] 0.054 | [5] 0.035 | [6] 0.048 | [7] 0.001 | [8] -0.188

CCNB2 (UniProt O95067)
inactive: [1] 0.037 | [2] 0.112 | [3] -0.004 | [4] 0.02 | [9] -0.033 | [5] -0.107 | [6] 0.026 | [10] 0.085 | [7] -0.057 | [8] -0.171

CASTOR2 (UniProt A6NHX0)
inactive: [1] 0.025 | [2] 0.254 | [3] -0.042 | [4] 0.061 | [5] 0.123 | [6] -0.035 | [7] -0.022 | [8] 0.066

CDC123 (UniProt O75794)
inactive: [1] 0.06 | [2] -0.002 | [3] 0.07 | [4] 0.137 | [5] -0.021 | [6] 0.015 | [7] -0.009 | [8] -0.1

CCDC174 (UniProt Q6PII3)
inactive: [1] -0.02 | [2] 0.036 | [3] 0.006 | [4] -0.012 | [9] 0.003 | [5] -0.008 | [6] -0.022 | [10] -0.033 | [7] -0.003 | [8] -0.033

CD63 (UniProt P08962)
inactive: [1] -0.013 | [2] 0.048 | [3] -0.013 | [4] -0.019 | [5] 0.06 | [6] 0.01 | [7] 0.012 | [8] 0.018

CCSMST1 (UniProt Q4G0I0)
inactive: [1] 0.024 | [2] 0.024 | [3] -0.022 | [4] -0.048 | [9] 0.076 | [6] 0.03 | [10] 0.001 | [7] -0.072

CCDC32 isoform 2 (UniProt Q9BV29)
inactive: [1] 0.059 | [2] 0.048 | [3] 0.088 | [4] 0.072 | [9] 0.051 | [5] 0.012 | [6] -0.011 | [10] 0 | [7] 0.039 | [8] 0.056

CASP10 isoform 4 (UniProt Q92851)
active: [2] -0.582
inactive: [1] -0.091 | [3] 0.015 | [4] 0.004 | [5] 0.121 | [6] -0.016 | [7] 0.023 | [8] -0.331

CBFB isoform 2 (UniProt Q13951)
inactive: [1] -0.183 | [2] -0.23 | [3] 0.036 | [4] 0.165 | [9] 0.016 | [5] -0.077 | [6] 0.037 | [10] 0.049 | [7] -0.082 | [8] -0.001

CCDC124 (UniProt Q96CT7)
inactive: [1] 0.047 | [2] 0.093 | [3] -0.043 | [4] -0.021 | [9] 0.024 | [5] 0.058 | [6] -0.063 | [10] -0.024 | [7] 0.003 | [8] 0.08

CD99 (UniProt P14209)
inactive: [1] 0.148 | [2] 0.129 | [3] -0.062 | [4] -0.073 | [9] 0.034 | [5] 0.133 | [6] -0.098 | [10] 0.049 | [8] 0.106

CARM1 (UniProt Q86X55)
inactive: [1] 0.028 | [2] 0.041 | [3] -0.032 | [4] 0.01 | [9] -0.024 | [5] 0.013 | [6] -0.002 | [10] 0.01 | [7] -0.073 | [8] -0.029

CCND3 (UniProt P30281)
inactive: [1] -0.085 | [2] 0.102 | [5] -0.021 | [6] -0.022 | [7] 0.063 | [8] -0.175
active: [4] 0.363

CCDC57 (UniProt Q2TAC2)
inactive: [1] -0.033 | [2] 0.012 | [3] -0.043 | [4] -0.059 | [6] -0.034

CCAR2 isoform 2 (UniProt Q8N163)
active: [2] -0.343
inactive: [1] -0.08 | [3] 0.031 | [4] -0.018 | [5] -0.025 | [6] 0.044 | [7] 0.003 | [8] -0.145

CCDC167 (UniProt Q9P0B6)
inactive: [1] 0.069 | [2] -0.12 | [3] -0.029 | [4] 0.019 | [5] 0.13 | [7] -0.095 | [8] 0.033

CCDC85C (UniProt A6NKD9)
inactive: [1] 0.054 | [2] -0.126 | [4] 0.084 | [5] -0.219 | [6] -0.075 | [10] -0.021 | [7] 0.135 | [8] -0.035

CASP3 (UniProt P42574)
inactive: [1] 0.012 | [2] 0.014 | [3] -0.033 | [5] 0.018 | [6] -0.021 | [7] -0.097 | [8] 0.019
active: [4] 0.273

CCDC59 (UniProt Q9P031)
inactive: [1] 0.065 | [2] 0.186 | [3] -0.006 | [4] -0.067 | [5] 0.088 | [6] -0.08 | [7] 0.394 | [8] 0.176

CBX5 (UniProt P45973)
inactive: [1] -0.033 | [2] -0.128 | [3] 0.048 | [4] -0.022 | [5] -0.057 | [6] -0.034 | [7] -0.121 | [8] -0.003

CD81 (UniProt P60033)
active: [1] 0.393
inactive: [2] 0.193 | [3] -0.06 | [4] 0.013 | [5] -0.226 | [6] 0.098 | [7] -0.139 | [8] 0.145
